Reference: article PMC3798644, “Molecular Basis for Oligomeric-DNA Binding and Episome Maintenance by KSHV LANA” (PLoS Pathogens, 2013)
These are yes or no findings as the source states them, for the method shown. Some binding calls cover weakened binding; strength is not graded here. Sequences can lack the tags named with a protein.

Molecular target: T1, FLAG-tagged full-length LANA, wild type (Kaposi's sarcoma-associated herpesvirus (KSHV)), Q76SB0
T1 chain: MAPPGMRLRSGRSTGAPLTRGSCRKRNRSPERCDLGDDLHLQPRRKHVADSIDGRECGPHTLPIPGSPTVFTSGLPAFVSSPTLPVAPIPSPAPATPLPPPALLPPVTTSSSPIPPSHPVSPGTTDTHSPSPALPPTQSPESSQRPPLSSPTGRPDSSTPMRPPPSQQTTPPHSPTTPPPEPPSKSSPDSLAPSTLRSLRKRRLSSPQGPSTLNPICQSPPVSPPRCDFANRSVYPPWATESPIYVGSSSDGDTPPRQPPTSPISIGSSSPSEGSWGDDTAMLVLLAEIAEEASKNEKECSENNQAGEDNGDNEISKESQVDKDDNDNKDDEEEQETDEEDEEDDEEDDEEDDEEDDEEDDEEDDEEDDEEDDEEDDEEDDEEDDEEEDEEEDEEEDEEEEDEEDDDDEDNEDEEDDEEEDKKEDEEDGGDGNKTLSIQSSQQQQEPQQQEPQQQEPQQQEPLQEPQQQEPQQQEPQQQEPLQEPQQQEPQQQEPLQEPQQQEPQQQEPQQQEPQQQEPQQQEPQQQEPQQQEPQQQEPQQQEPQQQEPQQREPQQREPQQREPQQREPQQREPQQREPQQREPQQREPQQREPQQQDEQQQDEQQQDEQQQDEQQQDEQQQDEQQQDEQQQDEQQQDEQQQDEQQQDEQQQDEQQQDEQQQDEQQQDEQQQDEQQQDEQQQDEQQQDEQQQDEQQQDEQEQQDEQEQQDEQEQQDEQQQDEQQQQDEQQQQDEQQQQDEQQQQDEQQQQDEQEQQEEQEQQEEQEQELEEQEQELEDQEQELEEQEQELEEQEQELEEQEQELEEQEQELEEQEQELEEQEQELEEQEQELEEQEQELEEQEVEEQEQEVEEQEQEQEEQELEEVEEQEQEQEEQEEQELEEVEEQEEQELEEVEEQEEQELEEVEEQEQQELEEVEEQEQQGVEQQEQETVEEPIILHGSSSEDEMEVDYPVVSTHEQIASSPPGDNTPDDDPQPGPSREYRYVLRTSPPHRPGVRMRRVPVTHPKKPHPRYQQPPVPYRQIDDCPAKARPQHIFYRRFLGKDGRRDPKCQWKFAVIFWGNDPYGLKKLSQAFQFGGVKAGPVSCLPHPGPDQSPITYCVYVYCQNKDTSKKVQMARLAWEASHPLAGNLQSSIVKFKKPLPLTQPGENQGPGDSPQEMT
Test: native gel or EMSA; agarose gel EMSA; affinity purified full-length FLAG-LANA at ~200 nM with radiolabelled LBS1 or LBS1/2 DNA probe at 2.5 nM; 10 mM HEPES pH 7.9, 10% glycerol, 100 mM KCl, 5 mM MgCl2; oligomeric nucleoprotein complexes on DNA; both purified
Details: remark: other sources report otherwise

B1: FLAG-tagged full-length LANA, wild type, Q76SB0 1-1162 (protein)
chain: MAPPGMRLRSGRSTGAPLTRGSCRKRNRSPERCDLGDDLHLQPRRKHVADSIDGRECGPHTLPIPGSPTVFTSGLPAFVSSPTLPVAPIPSPAPATPLPPPALLPPVTTSSSPIPPSHPVSPGTTDTHSPSPALPPTQSPESSQRPPLSSPTGRPDSSTPMRPPPSQQTTPPHSPTTPPPEPPSKSSPDSLAPSTLRSLRKRRLSSPQGPSTLNPICQSPPVSPPRCDFANRSVYPPWATESPIYVGSSSDGDTPPRQPPTSPISIGSSSPSEGSWGDDTAMLVLLAEIAEEASKNEKECSENNQAGEDNGDNEISKESQVDKDDNDNKDDEEEQETDEEDEEDDEEDDEEDDEEDDEEDDEEDDEEDDEEDDEEDDEEDDEEDDEEEDEEEDEEEDEEEEDEEDDDDEDNEDEEDDEEEDKKEDEEDGGDGNKTLSIQSSQQQQEPQQQEPQQQEPQQQEPLQEPQQQEPQQQEPQQQEPLQEPQQQEPQQQEPLQEPQQQEPQQQEPQQQEPQQQEPQQQEPQQQEPQQQEPQQQEPQQQEPQQQEPQQREPQQREPQQREPQQREPQQREPQQREPQQREPQQREPQQREPQQQDEQQQDEQQQDEQQQDEQQQDEQQQDEQQQDEQQQDEQQQDEQQQDEQQQDEQQQDEQQQDEQQQDEQQQDEQQQDEQQQDEQQQDEQQQDEQQQDEQQQDEQEQQDEQEQQDEQEQQDEQQQDEQQQQDEQQQQDEQQQQDEQQQQDEQQQQDEQEQQEEQEQQEEQEQELEEQEQELEDQEQELEEQEQELEEQEQELEEQEQELEEQEQELEEQEQELEEQEQELEEQEQELEEQEQELEEQEVEEQEQEVEEQEQEQEEQELEEVEEQEQEQEEQEEQELEEVEEQEEQELEEVEEQEEQELEEVEEQEQQELEEVEEQEQQGVEQQEQETVEEPIILHGSSSEDEMEVDYPVVSTHEQIASSPPGDNTPDDDPQPGPSREYRYVLRTSPPHRPGVRMRRVPVTHPKKPHPRYQQPPVPYRQIDDCPAKARPQHIFYRRFLGKDGRRDPKCQWKFAVIFWGNDPYGLKKLSQAFQFGGVKAGPVSCLPHPGPDQSPITYCVYVYCQNKDTSKKVQMARLAWEASHPLAGNLQSSIVKFKKPLPLTQPGENQGPGDSPQEMT
- binding: binds
